Laboratory results published in publication PMC7555701.
These are yes or no findings as the source states them, for the method shown. In cells and extracts the contact can be indirect. Some entries that bind do so weakly or less than the wild type.

Target: T1, TNF receptor-associated factor 2 (TRAF2) (human (endogenous in HCT 116)), Q12933
T1 chain: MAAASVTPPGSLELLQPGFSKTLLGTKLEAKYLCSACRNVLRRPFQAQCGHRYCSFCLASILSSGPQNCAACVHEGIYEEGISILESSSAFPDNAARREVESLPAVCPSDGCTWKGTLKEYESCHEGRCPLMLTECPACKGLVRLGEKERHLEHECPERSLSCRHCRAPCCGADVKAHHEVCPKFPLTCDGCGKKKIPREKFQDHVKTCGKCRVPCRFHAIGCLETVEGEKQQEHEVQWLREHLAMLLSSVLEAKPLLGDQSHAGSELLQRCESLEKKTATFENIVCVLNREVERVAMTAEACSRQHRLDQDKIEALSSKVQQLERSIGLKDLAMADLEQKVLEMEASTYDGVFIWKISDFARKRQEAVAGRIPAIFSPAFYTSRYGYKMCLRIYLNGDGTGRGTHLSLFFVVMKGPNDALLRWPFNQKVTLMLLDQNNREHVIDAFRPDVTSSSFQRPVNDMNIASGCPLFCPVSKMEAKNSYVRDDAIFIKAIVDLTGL
Assay: co-IP; HCT 116 cells untreated or primed with TNF-α (10 ng/mL, 12 h), then treated with 5 uM TAT-FADD for 6 h; endogenous TRAF2 immunoprecipitated from NP-40 lysate, beads washed with RIPA buffer; Western blot for cIAP2 and RIP1
Conditions: remark: other sources report otherwise

B1: receptor-interacting protein kinase (RIP1), Q13546 1-671 (enzyme)
chain: MQPDMSLNVIKMKSSDFLESAELDSGGFGKVSLCFHRTQGLMIMKTVYKGPNCIEHNEALLEEAKMMNRLRHSRVVKLLGVIIEEGKYSLVMEYMEKGNLMHVLKAEMSTPLSVKGRIILEIIEGMCYLHGKGVIHKDLKPENILVDNDFHIKIADLGLASFKMWSKLNNEEHNELREVDGTAKKNGGTLYYMAPEHLNDVNAKPTEKSDVYSFAVVLWAIFANKEPYENAICEQQLIMCIKSGNRPDVDDITEYCPREIISLMKLCWEANPEARPTFPGIEEKFRPFYLSQLEESVEEDVKSLKKEYSNENAVVKRMQSLQLDCVAVPSSRSNSATEQPGSLHSSQGLGMGPVEESWFAPSLEHPQEENEPSLQSKLQDEANYHLYGSRMDRQTKQQPRQNVAYNREEERRRRVSHDPFAQQRPYENFQNTEGKGTAYSSAASHGNAVHQPSGLTSQPQVLYQNNGLYSSHGFGTRPLDPGTAGPRVWYRPIPSHMPSLHNIPVPETNYLGNTPTMPFSSLPPTDESIKYTIYNSTGIQIGAYNYMEIGGTSSSLLDSTNTNFKEEPAAKYQAIFDNTTSLTDKHLDPIRENLGKHWKNCARKLGFTQSQIDEIDHDYERDGLKEKVYQMLQKWVMREGIKGATVGKLAQALHQCSRIDLLSSLIYVSQN
With B1 the binding was “binds”.
